Data as given in PubChem BioAssay AID493014 (National Center for Advancing Translational Sciences (NCATS), 2011).
Several values for one entry are separate records, joined by “and”; a condition that tells them apart may be missing. Identical values can stand only once. The list shows a part of the results. Further columns of the screen follow, without active or inactive calls. Compounds called inactive in the main read-out are mostly missing here. Words in brackets tell the shape of the fitted curve; partial curves, single points and poor fits give uncertain potencies.

Assay: qHTS Assay to Find Inhibitors of Chronic Active B-Cell Receptor Signaling
Conditions: ABC-DLBCL IkBa-CBG/CBR reporter, luminescence ratio (green luciferase fused to IkBa over red control in TMD8 lymphoma cells), 4 h
Summary of the method: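 Cell line TMD8 (human ABC DLBCL), stably expressing tet-inducible CBG68-IkBa fusion and CBR; IMDM/0.5% FBS; cpd up to 46 uM; dox induction, 4 h, 37C/5% CO2; dual luminescence; green/red ratio; MG132 control.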

[1] = measured here: CBR red luminescence, cell number
[2] = measured here: IkBa-CBG green luminescence

Question: Which AC50 [1] does the source give for `Cc1ccc(C(=O)Cn2nnc(-c3ccccc3)n2)cc1` here?
Answer: The AC50 was 4.47 µM [rising, partial curve, poor fit].

Question: For `CC(C)(C)c1ccc(/C=C/C(=O)N2CCCCC2)cc1`, which AC50 [1] is on record?
Answer: The AC50 was 2.51 µM [rising, full curve].

Question: Which AC50 [1] does the source give for `O=c1c2ccccc2nc2oc3ccccc3n12` here?
Answer: Its AC50 is 1.41 µM [rising, full curve, poor fit].

Question: With `O=C(Cn1c(=O)n(-c2ccccc2)c(=O)c2sccc21)NCc1ccccc1` as the molecule, how does the AC50 [1] read?
Answer: Its AC50 is 11.2 µM [falling, partial curve].

Question: Which AC50 [1] does the source give for `O=C(Nc1nc2ccc(S(=O)(=O)N3CCCCC3)cc2s1)c1cccnc1` here?
Answer: Its AC50 is 0.411 µM [falling, partial curve, poor fit].

Question: With `Cc1cccc(C)c1Nc1sc(C(=O)c2ccccc2)c(N)c1C(=O)Nc1ccc(F)cc1` as the molecule, how does the AC50 [1] read?
Answer: The AC50 was 35.5 µM [falling, single point].

Question: With `CC(=O)c1ccc(C(=O)N2CCc3c([nH]c4ccccc34)C2c2ccccn2)s1` (centres undefined) as the molecule, how does the AC50 [1] read?
Answer: Its AC50 is 35.5 µM [falling, single point].

Question: Which AC50 [1] does the source give for `O=C(c1cncc(Br)c1)N1CCN(c2ccc(N3CCOCC3)nn2)CC1` here?
Answer: Its AC50 is 2.91 µM [falling, single point].

Question: With `CCOC(=O)c1oc2ccccc2c1CN1CCCCC1` as the molecule, how does the AC50 [1] read?
Answer: The AC50 was 5.01 µM [rising, single point].

Question: With `COc1ccc(CCNC(=O)c2ccc(CNc3nc(=S)[nH]c4ccccc34)cc2)cc1OC` as the molecule, how does the AC50 [1] read?
Answer: The AC50 was 35.5 µM [falling, single point].

Question: With `COc1cc(CNc2ccc(N3CCCC3)cc2)ccc1OCc1ccccc1` as the molecule, how does the AC50 [1] read?
Answer: The AC50 was 29.1 µM [falling, single point].

Question: For `Cc1ccc(O)c(NC(=O)c2cccc(NC(=O)c3ccco3)c2)c1`, which AC50 [1] is on record?
Answer: The AC50 was 29.1 µM [falling, single point].

Question: Which AC50 [1] does the source give for `CC(C)CC(=O)Nc1cc2nn(-c3ccccc3)nc2cc1Cl` here?
Answer: The AC50 was 1.64 µM [rising, partial curve].

Question: For `CCOC(=O)c1cc2cc(C)ccc2[nH]1`, which AC50 [1] is on record?
Answer: The AC50 was 6.51 µM [rising, partial curve, poor fit].

Question: Which AC50 [1] does the source give for `CSc1nc(-c2ccccc2)nc(C(Cl)Cl)n1` here?
Answer: The AC50 was 10.3 µM [rising, partial curve].

Question: And the AC50 [2]?
Answer: The AC50 was 20.6 µM [falling, single point].

Question: For `CC(Sc1nc(-c2ccc(F)cc2)cs1)C(=O)Nc1ccc(Cl)cn1` (centres undefined), which AC50 [1] is on record?
Answer: The AC50 was 5.17 µM [falling, full curve].

Question: With `Cn1cccc1C(=O)NC(=O)COC(=O)c1ccccc1Sc1ccccc1C#N` as the molecule, how does the AC50 [1] read?
Answer: Its AC50 is 5.62 µM [falling, single point].

Question: What does the source list for `C=CCN1C(=O)C(O)(CC(=O)c2ccco2)c2cc(Br)ccc21` (centres undefined)?
Answer: AC50 [1]: 35.5 µM [rising, single point]; AC50 [2]: 25.1 µM [falling, single point]

Question: For `Cc1cc(C)nc(SCNC(=O)c2ccccc2)n1`, which AC50 [1] is on record?
Answer: Its AC50 is 8.2 µM [rising, partial curve, poor fit].

Question: With `CC(C)Oc1cccc(-c2cc(C(=O)N3CCN(c4ncccn4)CC3)c3ccccc3n2)c1` as the molecule, how does the AC50 [1] read?
Answer: The AC50 was 29.1 µM [falling, partial curve, poor fit].

Question: Which AC50 [1] does the source give for `O=C(CCNC(=O)c1ccc(Br)cc1)Nc1cccc(S(=O)(=O)N2CCCCC2)c1` here?
Answer: Its AC50 is 29.1 µM [falling, single point].

Question: For `COc1ccc(CNCc2cn(-c3cccc(F)c3)nc2-c2ccc(C)o2)cc1`, which AC50 [1] is on record?
Answer: The AC50 was 25.1 µM [falling, single point].

Question: For `O=C(NC(=S)Nc1ccc(S(=O)(=O)NC2CCCCC2)cc1)c1cccs1`, which AC50 [1] is on record?
Answer: Its AC50 is 1.84 µM [falling, full curve].

Question: For `CCCCN1C(=O)CC(C(=O)O)C1c1ccc(OC)cc1` (centres undefined), which AC50 [1] is on record?
Answer: Its AC50 is 29.1 µM [rising, single point].

Question: Which results are given for `Cc1ccccc1-c1nc2c3ccccc3nc(=S)n2[nH]1`?
Answer: AC50 [1]: 6.31 µM [rising, partial curve, poor fit]; AC50 [2]: 0.708 µM [falling, full curve]

Question: Which AC50 [1] does the source give for `CCCCC(=O)Nc1ccc(C(=O)Nc2ccc(S(=O)(=O)N3CCCC3)cc2)cc1` here?
Answer: The AC50 was 29.1 µM [falling, single point].

Question: Which AC50 [1] does the source give for `O=C(N/N=C/CCc1ccccc1)c1ccc(CN2c3cccc4cccc(c34)S2(=O)=O)cc1` here?
Answer: Its AC50 is 14.6 µM [rising, partial curve, poor fit].

Question: With `O=C(Nc1cccc(Cl)c1)c1cc([N+](=O)[O-])ccc1N1CCN(CCO)CC1` as the molecule, how does the AC50 [1] read?
Answer: The AC50 was 12.6 µM [falling, partial curve, poor fit].

Question: With `O=C(Nc1ccc([N+](=O)[O-])cc1)c1cc2ccccc2nc1Cl` as the molecule, how does the AC50 [1] read?
Answer: The AC50 was 0.562 µM [rising, full curve, poor fit].

Question: Which AC50 [1] does the source give for `O=C(COc1ccc(Br)cc1)Nc1ccc(CN2CCOCC2)cc1` here?
Answer: Its AC50 is 1 µM [falling, full curve, poor fit].

Question: Which AC50 [1] does the source give for `COC(=O)C1=C(C)N(Cc2ccccc2)C(=NCc2cccc(C(F)(F)F)c2)N[C@H]1c1cccc(F)c1` here?
Answer: Its AC50 is 35.5 µM [falling, single point] and 14.1 µM [falling, partial curve, poor fit].
